Results: the supplement of paper PMC6078165

Test system: Hs578T
Test: relative JC-1 red fluorescence (viability) vs pre-drug, coculture with fibroblast (fraction); higher = more viable cancer cells
Conditions: 0.1 µM
Experimental: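 JC-1 labelled TNBC cells cocultured 1:1 (1,500 cells each) with CellTrace Violet stained primary or stromal fibroblasts in 384-well plates in FluoroBrite medium, treated with one of 42 anticancer drugs at 0.1, 1, 10 or 100 uM. JC-1 red fluorescence (mitochondrial integrity in cancer cells only) was read by plate reader every 8 h for 72 h. Values are normalised to each well's pre-drug value. The stock of one drug was tenfold lower, so its dose labels may be too high.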

CC(=O)c1c(C)c2cnc(Nc3ccc(N4CCNCC4)cn3)nc2n(C2CCCC2)c1=O [Palbociclib]
Conditions	relative JC-1 red fluorescence
8 h	0.903
16 h	0.794
24 h	0.756
32 h	0.729
40 h	0.674
48 h	0.63
56 h	0.606
64 h	0.563
72 h	0.555

relative JC-1 red fluorescence
Conditions	8 h	16 h	24 h	32 h	40 h	48 h	56 h	64 h	72 h
coculture fibroblast: C12385	0.8463	0.716	0.699	0.612	0.564	0.5434	0.527	0.524	0.53
coculture fibroblast: H6013	0.883	0.78	0.735	0.711	0.686	0.678	0.668	0.666	0.644
coculture fibroblast: H6019	0.79191	0.6769	0.656	0.577	0.556	0.544	0.518	0.507	0.484
coculture fibroblast: H6076	0.9339	0.835	0.812	0.8	0.771	0.774	0.756	0.761	0.758
coculture fibroblast: H6231	0.922	0.829	0.738	0.6856	0.617	0.587	0.536	0.508	0.484
coculture fibroblast: HADF	0.909	0.843	0.799	0.769	0.737	0.711	0.684	0.678	0.656
coculture fibroblast: HCFa	0.8772	0.787	0.735	0.688	0.627	0.606	0.571	0.552	0.51
coculture fibroblast: HCPF	0.943	0.858	0.825	0.788	0.743	0.721	0.684	0.639	0.607
coculture fibroblast: HHSteC	0.915	0.801	0.74	0.689	0.635	0.606	0.577	0.55	0.514
coculture fibroblast: HMF	0.907	0.815	0.78	0.767	0.716	0.706	0.67	0.65	0.636
coculture fibroblast: HPFa	0.92	0.83	0.7587	0.707	0.656	0.622	0.581	0.551	0.511
coculture fibroblast: HUF	0.876	0.758	0.695	0.592	0.518	0.48	0.445	0.43	0.419
coculture fibroblast: Hs27A	0.923	0.885	0.859	0.8169	0.765	0.7568	0.72	0.705	0.655
coculture fibroblast: Hs343T	0.916	0.775	0.774	0.767	0.709	0.693	0.671	0.659	0.664
coculture fibroblast: WS1	0.8318	0.697	0.6429	0.556	0.498	0.477	0.456	0.456	0.456

Values are relative to the signal before dosing, not to a vehicle control; the signal also falls without drug.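 Labels refer to human fibroblasts, largely primary: uterine (C12385, HUF), lung (H6013), bone (Hs27A), adrenal (HADF), skin (WS1), plus mammary HMF and breast cancer-associated Hs343T. Cancer lines are basal-like or mesenchymal-like triple-negative breast cancer. The paper counts as hits responses shifting over 3x the replicate standard deviation. The tissue of the other fibroblasts is not given here.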
